Assay results: the supplement of paper PMC6411743
± gives the standard deviation of the averaged measurements. The entries are a selection whose mix differs from that of the whole data set.

By UniProt entry, the sequences of proteins in these tests, tags left out. Where a name states a change or a piece, a line headed by the entry shows the natural chain unless it says otherwise.
UniProt P56559: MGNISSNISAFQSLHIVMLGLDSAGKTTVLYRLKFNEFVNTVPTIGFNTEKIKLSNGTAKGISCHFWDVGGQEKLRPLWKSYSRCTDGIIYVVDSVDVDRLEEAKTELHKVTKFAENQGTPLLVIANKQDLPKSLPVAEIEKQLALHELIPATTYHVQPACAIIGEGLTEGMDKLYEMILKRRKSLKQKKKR
UniProt P62136, whole entry: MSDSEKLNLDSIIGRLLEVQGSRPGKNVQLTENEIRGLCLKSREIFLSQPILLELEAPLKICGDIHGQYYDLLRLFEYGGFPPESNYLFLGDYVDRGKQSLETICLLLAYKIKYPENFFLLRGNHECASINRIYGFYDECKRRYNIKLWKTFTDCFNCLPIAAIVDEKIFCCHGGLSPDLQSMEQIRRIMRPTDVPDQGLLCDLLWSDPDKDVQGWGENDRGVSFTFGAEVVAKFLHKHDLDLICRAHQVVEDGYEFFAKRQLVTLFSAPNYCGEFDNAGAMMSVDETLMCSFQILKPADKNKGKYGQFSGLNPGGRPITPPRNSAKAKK
UniProt P98095: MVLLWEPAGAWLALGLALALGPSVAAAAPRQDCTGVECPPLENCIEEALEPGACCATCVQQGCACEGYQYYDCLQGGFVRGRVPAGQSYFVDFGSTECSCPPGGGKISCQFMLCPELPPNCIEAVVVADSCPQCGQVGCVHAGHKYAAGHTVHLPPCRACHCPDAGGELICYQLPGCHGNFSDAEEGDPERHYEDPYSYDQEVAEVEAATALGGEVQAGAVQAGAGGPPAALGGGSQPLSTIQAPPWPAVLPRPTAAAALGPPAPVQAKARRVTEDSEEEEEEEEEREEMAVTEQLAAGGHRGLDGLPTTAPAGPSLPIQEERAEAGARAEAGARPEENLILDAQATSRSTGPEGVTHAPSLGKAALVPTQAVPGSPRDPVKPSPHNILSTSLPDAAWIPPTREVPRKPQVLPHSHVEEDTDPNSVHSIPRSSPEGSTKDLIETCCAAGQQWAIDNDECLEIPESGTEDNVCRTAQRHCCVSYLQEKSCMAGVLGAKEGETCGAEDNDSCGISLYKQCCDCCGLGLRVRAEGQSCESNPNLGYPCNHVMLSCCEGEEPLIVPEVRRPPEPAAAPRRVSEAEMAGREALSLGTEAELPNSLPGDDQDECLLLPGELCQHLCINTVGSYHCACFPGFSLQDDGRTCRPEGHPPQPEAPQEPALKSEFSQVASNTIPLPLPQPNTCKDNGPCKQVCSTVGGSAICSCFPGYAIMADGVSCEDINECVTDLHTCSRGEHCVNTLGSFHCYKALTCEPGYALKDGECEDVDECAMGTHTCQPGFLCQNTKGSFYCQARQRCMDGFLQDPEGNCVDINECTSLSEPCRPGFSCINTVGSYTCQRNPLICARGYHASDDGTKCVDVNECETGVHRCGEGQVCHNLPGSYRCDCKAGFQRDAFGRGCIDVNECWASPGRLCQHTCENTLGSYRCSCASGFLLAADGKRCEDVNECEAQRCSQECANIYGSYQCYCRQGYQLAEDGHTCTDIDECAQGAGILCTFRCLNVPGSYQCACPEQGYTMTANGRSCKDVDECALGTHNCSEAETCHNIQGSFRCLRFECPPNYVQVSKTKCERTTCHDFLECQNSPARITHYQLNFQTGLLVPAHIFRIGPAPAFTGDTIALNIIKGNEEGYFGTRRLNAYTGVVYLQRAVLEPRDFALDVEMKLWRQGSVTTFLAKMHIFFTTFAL
UniProt P53609, whole entry, looked up: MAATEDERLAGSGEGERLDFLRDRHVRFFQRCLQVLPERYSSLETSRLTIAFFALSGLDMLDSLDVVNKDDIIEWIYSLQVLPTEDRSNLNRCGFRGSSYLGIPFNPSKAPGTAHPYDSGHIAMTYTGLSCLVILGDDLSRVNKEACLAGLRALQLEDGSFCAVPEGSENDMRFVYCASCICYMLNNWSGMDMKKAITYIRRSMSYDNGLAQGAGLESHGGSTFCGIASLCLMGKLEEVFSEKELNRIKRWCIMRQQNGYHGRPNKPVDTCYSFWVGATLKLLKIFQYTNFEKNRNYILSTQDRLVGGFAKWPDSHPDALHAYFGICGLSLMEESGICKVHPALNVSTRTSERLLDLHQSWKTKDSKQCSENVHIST
UniProt P61020: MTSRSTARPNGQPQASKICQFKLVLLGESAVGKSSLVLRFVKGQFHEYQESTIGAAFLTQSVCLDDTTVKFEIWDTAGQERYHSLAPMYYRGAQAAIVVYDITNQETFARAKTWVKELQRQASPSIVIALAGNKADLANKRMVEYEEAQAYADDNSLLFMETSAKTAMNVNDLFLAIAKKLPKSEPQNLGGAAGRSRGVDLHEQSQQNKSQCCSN
UniProt Q00536: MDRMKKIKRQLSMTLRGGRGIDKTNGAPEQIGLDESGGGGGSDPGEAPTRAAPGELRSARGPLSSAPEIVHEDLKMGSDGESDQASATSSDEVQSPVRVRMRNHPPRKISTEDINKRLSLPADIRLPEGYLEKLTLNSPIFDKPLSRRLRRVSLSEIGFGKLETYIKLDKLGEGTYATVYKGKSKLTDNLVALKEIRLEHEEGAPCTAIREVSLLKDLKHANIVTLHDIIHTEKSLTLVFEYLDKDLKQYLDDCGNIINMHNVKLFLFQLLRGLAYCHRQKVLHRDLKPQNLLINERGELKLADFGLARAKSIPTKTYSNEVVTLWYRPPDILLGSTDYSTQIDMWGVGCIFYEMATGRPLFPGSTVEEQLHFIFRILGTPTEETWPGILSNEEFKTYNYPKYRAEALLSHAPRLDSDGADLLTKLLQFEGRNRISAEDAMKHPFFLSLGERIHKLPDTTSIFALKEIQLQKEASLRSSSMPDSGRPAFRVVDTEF
UniProt P68543: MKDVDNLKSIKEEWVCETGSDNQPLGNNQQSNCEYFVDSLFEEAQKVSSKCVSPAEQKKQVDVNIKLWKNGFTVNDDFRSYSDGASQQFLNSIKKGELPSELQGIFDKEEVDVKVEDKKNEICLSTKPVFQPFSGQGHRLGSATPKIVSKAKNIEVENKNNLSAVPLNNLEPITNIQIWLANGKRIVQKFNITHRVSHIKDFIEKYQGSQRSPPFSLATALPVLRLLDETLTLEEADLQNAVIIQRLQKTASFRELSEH
UniProt P53621: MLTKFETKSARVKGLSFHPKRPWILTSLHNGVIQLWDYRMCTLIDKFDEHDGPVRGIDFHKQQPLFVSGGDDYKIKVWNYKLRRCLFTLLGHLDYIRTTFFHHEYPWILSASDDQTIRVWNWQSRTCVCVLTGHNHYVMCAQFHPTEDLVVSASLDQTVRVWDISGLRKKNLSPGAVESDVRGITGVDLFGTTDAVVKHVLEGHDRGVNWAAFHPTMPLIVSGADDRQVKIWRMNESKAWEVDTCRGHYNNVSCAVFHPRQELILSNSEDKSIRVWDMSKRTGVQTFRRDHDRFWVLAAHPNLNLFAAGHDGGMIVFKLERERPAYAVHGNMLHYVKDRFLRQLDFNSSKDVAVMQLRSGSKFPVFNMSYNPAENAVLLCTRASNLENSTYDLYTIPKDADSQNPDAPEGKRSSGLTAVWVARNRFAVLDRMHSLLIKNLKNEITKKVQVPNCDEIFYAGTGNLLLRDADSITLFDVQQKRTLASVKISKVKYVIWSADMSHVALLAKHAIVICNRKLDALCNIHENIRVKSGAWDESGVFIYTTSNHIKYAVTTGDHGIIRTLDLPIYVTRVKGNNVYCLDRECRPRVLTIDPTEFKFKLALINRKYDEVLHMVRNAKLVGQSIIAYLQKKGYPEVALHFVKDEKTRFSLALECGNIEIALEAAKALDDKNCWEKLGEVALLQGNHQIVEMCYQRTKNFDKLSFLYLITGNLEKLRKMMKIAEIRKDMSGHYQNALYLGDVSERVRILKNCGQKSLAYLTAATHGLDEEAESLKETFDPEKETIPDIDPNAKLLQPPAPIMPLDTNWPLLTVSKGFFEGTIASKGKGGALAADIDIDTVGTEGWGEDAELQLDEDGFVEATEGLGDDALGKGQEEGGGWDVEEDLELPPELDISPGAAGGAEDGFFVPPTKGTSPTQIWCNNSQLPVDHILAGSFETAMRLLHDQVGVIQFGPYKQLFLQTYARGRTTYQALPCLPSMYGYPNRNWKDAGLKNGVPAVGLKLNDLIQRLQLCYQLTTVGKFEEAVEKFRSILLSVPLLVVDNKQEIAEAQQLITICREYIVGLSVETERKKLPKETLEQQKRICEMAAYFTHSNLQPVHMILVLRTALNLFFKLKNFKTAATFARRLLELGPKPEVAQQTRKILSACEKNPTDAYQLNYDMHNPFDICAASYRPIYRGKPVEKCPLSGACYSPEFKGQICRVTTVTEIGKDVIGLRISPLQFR
UniProt P53041: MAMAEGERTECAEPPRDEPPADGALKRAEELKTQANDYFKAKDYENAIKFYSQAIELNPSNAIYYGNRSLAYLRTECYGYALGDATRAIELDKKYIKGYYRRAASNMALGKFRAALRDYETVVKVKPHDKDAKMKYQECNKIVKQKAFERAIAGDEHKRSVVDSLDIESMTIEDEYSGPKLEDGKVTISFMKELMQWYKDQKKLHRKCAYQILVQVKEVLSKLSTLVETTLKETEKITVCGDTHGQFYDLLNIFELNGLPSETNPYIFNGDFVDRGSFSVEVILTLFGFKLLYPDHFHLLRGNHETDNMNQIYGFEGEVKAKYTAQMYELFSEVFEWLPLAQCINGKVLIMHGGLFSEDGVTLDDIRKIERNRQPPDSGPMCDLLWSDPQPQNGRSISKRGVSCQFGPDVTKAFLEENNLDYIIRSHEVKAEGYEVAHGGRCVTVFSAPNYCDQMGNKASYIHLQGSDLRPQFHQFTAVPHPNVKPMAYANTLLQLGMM
UniProt P54132: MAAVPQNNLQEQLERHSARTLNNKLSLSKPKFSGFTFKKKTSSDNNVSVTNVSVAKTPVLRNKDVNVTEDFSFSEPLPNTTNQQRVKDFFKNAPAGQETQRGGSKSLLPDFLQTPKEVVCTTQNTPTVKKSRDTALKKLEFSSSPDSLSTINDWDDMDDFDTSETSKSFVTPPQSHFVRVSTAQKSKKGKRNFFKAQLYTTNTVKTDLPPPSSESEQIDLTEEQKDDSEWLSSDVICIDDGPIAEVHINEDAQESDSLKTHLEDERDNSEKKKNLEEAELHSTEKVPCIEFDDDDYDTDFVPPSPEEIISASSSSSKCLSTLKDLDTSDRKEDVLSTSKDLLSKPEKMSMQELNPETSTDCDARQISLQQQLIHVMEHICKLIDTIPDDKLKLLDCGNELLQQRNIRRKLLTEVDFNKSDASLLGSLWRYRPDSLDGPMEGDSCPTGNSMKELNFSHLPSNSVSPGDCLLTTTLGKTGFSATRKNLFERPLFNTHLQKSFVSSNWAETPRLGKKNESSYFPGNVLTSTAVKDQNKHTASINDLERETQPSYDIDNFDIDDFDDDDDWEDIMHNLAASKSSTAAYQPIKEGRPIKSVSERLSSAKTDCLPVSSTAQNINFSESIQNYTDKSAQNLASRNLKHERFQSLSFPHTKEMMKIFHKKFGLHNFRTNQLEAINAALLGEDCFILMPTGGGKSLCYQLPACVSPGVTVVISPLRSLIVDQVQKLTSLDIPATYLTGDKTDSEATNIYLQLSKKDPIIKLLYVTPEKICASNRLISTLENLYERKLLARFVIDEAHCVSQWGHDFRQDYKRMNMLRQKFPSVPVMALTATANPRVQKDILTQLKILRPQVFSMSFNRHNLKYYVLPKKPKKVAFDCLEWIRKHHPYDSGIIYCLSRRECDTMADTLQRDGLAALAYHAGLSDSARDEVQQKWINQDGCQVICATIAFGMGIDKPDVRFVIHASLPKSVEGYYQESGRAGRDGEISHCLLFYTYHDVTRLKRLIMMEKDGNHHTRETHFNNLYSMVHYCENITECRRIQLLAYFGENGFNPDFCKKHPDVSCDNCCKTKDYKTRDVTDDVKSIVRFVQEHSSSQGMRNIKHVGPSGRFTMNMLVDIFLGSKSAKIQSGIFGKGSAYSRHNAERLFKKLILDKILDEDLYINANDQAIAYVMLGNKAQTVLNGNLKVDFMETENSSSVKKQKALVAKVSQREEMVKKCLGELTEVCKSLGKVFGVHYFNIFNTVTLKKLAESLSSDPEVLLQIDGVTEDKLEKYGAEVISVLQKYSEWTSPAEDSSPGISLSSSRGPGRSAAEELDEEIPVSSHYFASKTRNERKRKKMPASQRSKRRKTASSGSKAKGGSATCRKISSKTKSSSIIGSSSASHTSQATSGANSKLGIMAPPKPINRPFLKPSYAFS
UniProt P78318: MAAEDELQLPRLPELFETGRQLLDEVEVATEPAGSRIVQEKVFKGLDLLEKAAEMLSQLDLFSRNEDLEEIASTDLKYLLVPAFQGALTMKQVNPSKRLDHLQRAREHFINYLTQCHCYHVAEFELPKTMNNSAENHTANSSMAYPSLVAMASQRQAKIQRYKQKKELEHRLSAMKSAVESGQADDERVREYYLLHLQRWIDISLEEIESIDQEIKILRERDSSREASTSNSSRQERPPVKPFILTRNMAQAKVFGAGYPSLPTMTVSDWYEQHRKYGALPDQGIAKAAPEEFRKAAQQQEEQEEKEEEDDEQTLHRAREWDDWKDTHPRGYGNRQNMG

Compound: Nc1ncnc2c1ncn2[C@@H]1O[C@H](COP(=O)(O)OP(=O)(O)OP(=O)(O)O)[C@@H](O)[C@H]1O [adenosine triphosphate]
Assay: NP40-soluble protein abundance relative to vehicle (solubility fold change) (ratio); higher = more soluble protein in presence of ATP
In short: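 Eight concentrations, 0.1 to 10 mM, were tested on Jurkat crude lysate for 10 min at room temperature and then 3 min at 37 °C, in three independent experiments. The lysate was solubilised with 0.8% NP40 and benzonase, ultracentrifuged, and the supernatant TMT-labelled for LC-MS/MS. Each value is the fold change against the detergent-processed vehicle in its own replicate, from vsn-normalised intensities.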

Row | Target | NP40-soluble protein abundance (concentration: 1mM) | NP40-soluble protein abundance (concentration: 2mM) | NP40-soluble protein abundance (concentration: 4mM) | NP40-soluble protein abundance (concentration: 6mM) | NP40-soluble protein abundance (concentration: 8mM) | NP40-soluble protein abundance (concentration: 10mM)
1 | UniProt P56559 and related entries | 1.23 ± 0.067 | 1.24 ± 0.019 | 1.22 ± 0.031 | 1.21 ± 0.076 | 1.29 ± 0.12 | 1.22 ± 0.0015
2 | B2M (UniProt P61769) | 0.984 ± 0.041 | 0.944 ± 0.018 | 0.88 ± 0.022 | 0.977 ± 0.014 | 0.921 ± 0.086 | 0.884 ± 0.01
3 | RPL38 (UniProt P63173) | 0.875 ± 0.063 | 0.916 ± 0.055 | 0.883 ± 0.052 | 0.847 ± 0.09 | 0.766 ± 0.036 | 0.905 ± 0.099
4 | PPP1CA (UniProt P62136) | 0.967 ± 0.042 | 0.94 ± 0.052 | 0.932 ± 0.028 | 0.978 ± 0.011 | 0.96 ± 0.049 | 0.951 ± 0.044
5 | UniProt P56385 | 0.948 ± 0.16 | 0.894 ± 0.072 | 0.863 ± 0.057 | 0.99 ± 0.13 | 0.8988 ± 0.0036 | 0.844 ± 0.077
6 | UniProt P98095 and related entries | 0.941 ± 0.014 | 0.975 ± 0.026 | 0.973 ± 0.025 | 1 ± 0.038 | 0.929 ± 0.05 | 0.978 ± 0.038
7 | COG7 (UniProt P83436) | 0.977 ± 0.031 | 0.957 ± 0.037 | 0.961 ± 0.05 | 0.972 ± 0.05 | 0.952 ± 0.028 | 0.945 ± 0.036
8 | UniProt P56937 and related entries | 0.979 ± 0.081 | 1.01 ± 0.094 | 0.986 ± 0.069 | 0.954 ± 0.13 | 0.985 ± 0.049 | 1 ± 0.082
9 | GRB2 (UniProt P62993) | 0.991 ± 0.058 | 0.962 ± 0.059 | 0.946 ± 0.06 | 0.947 ± 0.072 | 0.968 ± 0.067 | 0.933 ± 0.053
10 | UniProt P53671 and related entries | 1.15 ± 0.094 | 1.1 ± 0.027 | 1.1 ± 0.028 | 1.06 ± 0.1 | 1.14 ± 0.064 | 1.13 ± 0.024
11 | UniProt P62701 | 0.875 ± 0.039 | 0.806 ± 0.1 | 0.752 ± 0.12 | 0.722 ± 0.11 | 0.641 ± 0.096 | 0.725 ± 0.11
12 | PGGT1B (UniProt P53609) | 1.03 ± 0.065 | 1.07 ± 0.029 | 1.05 ± 0.17 | 0.881 ± 0.24 | 1.02 ± 0.21 | 1.09 ± 0.12
13 | UniProt P61313 | 0.988 ± 0.062 | 0.898 ± 0.088 | 0.922 ± 0.11 | 0.851 ± 0.11 | 0.771 ± 0.11 | 0.898 ± 0.1
14 | UniProt P61020 | 0.972 ± 0.064 | 0.997 ± 0.056 | 0.964 ± 0.046 | 0.969 ± 0.13 | 0.937 ± 0.01 | 0.972 ± 0.072
15 | UniProt Q00536 and related entries | 0.955 ± 0.058 | 0.97 ± 0.072 | 0.9 ± 0.04 | 0.948 ± 0.016 | 0.968 ± 0.012 | 0.947 ± 0.019
16 | UniProt P63092 and related entries | 1.02 ± 0.041 | 1.02 ± 0.019 | 0.968 ± 0.028 | 0.99 ± 0.078 | 0.982 ± 0.017 | 0.998 ± 0.033
17 | UniProt P78347 and related entries | 0.977 ± 0.03 | 0.9556 ± 0.0091 | 0.949 ± 0.02 | 0.97 ± 0.016 | 1.02 ± 0.035 | 1.03 ± 0.034
18 | PITPNA (UniProt Q00169) | 0.98 ± 0.043 | 0.979 ± 0.051 | 0.955 ± 0.038 | 0.947 ± 0.085 | 0.949 ± 0.025 | 0.947 ± 0.048
19 | UniProt P61960 | 0.925 ± 0.11 | 0.916 ± 0.066 | 0.846 ± 0.1 | 0.925 ± 0.048 | 0.957 ± 0.038 | 0.849 ± 0.049
20 | UniProt P62875 | 0.952 ± 0.092 | 0.941 ± 0.12 | 0.964 ± 0.11 | 0.96 ± 0.2 | 0.971 ± 0.11 | 0.938 ± 0.15
21 | GMFB (UniProt P60983) | 0.978 ± 0.11 | 0.976 ± 0.049 | 1.01 ± 0.07 | 0.984 ± 0.052 | 0.947 ± 0.045 | 0.939 ± 0.032
22 | UBXN2A (UniProt P68543) | 0.949 ± 0.069 | 0.938 ± 0.052 | 0.955 ± 0.019 | 0.921 ± 0.17 | 0.867 ± 0.021 | 0.948 ± 0.047
23 | COPA (UniProt P53621) | 1.01 ± 0.097 | 0.996 ± 0.083 | 0.981 ± 0.052 | 0.923 ± 0.071 | 1 ± 0.032 | 1 ± 0.049
24 | UniProt P60763 | 0.975 ± 0.042 | 0.966 ± 0.039 | 1.02 ± 0.094 | 0.981 ± 0.056 | 0.985 ± 0.11 | 0.966 ± 0.033
25 | PPP5C (UniProt P53041) | 0.993 ± 0.059 | 0.978 ± 0.041 | 0.967 ± 0.043 | 0.953 ± 0.075 | 0.982 ± 0.057 | 0.968 ± 0.047
26 | UniProt P62273 | 0.833 ± 0.1 | 0.812 ± 0.11 | 0.75 ± 0.13 | 0.719 ± 0.15 | 0.584 ± 0.067 | 0.716 ± 0.061
27 | MRPS35 (UniProt P82673) | 0.976 ± 0.029 | 0.911 ± 0.072 | 0.86 ± 0.075 | 0.895 ± 0.23 | 0.894 ± 0.14 | 0.824 ± 0.11
28 | BLM (UniProt P54132) | 1 ± 0.028 | 1.03 ± 0.03 | 1.04 ± 0.036 | 1.06 ± 0.021 | 1.1 ± 0.048 | 1.13 ± 0.036
29 | XIAP (UniProt P98170) | 0.996 ± 0.018 | 1.02 ± 0.035 | 1.03 ± 0.045 | 1 ± 0.033 | 1.02 ± 0.019 | 1.02 ± 0.037
30 | IGBP1 (UniProt P78318) | 1.01 ± 0.095 | 0.99 ± 0.025 | 0.999 ± 0.034 | 1.02 ± 0.073 | 1.01 ± 0.05 | 0.927 ± 0.087

Complete entries from above. Order of values: NP40-soluble protein abundance (concentration: 1mM)	NP40-soluble protein abundance (concentration: 2mM)	NP40-soluble protein abundance (concentration: 4mM)	NP40-soluble protein abundance (concentration: 6mM)	NP40-soluble protein abundance (concentration: 8mM)	NP40-soluble protein abundance (concentration: 10mM)
UniProt P63092 and related entries is entered as 1.02 ± 0.041	1.02 ± 0.019	0.968 ± 0.028	0.99 ± 0.078	0.982 ± 0.017	0.998 ± 0.033
UBXN2A (UniProt P68543) is entered as 0.949 ± 0.069	0.938 ± 0.052	0.955 ± 0.019	0.921 ± 0.17	0.867 ± 0.021	0.948 ± 0.047
